Measurements published in article PMC5222566, “The Ciliopathy-Associated Cep104 Protein Interacts with Tubulin and Nek1 Kinase” (Structure(London, England:1993), 2017).
These are yes or no findings as the source states them, for the method shown. Some results given as binding are weak or reduced against the parent protein; the word gives no strength. Where a sequence is shown, tags or fusion partners need not be part of it.

Sequences of proteins named here, by UniProt entry; tags and fusion partners are left off. Residues count along the entry.
UniProt O43303, residues 906-936: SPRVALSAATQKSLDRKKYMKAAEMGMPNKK

Molecular target: T1, GST-Cep104^746-875 (ZNF) (human) (UniProt O60308)
T1 sequence: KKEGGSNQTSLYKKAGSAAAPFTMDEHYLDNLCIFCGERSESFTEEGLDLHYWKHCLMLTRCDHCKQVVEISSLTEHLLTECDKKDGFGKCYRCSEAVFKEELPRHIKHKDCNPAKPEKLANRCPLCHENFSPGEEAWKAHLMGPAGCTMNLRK
Experiment: pull-down; in vitro: 30 ug GST-Cep104^746-875 on Glutathione Sepharose 4B; Nek1^451-677 (26 uM), CP110^906-936 (66 uM), D. rerio STIL^404-448 (127 uM) or binary combinations, 1 h 4°C; PBS, 0.1% IGEPAL CA-630, 1 mM DTT; Coomassie gel; both purified

- binding: binds
Substance: CP110^906-936 (from UniProt O43303 906-936) (peptide)
